Cell number change and AC50 data for 64 compounds are collected here from PubChem BioAssay AID2685 (National Center for Advancing Translational Sciences (NCATS), 2010).

The list shows a part of the results. These are further read-outs of the screen, such as a control signal, another cell line or another target. No call is given for them. Compounds called inactive in the main read-out are mostly missing here. The note in brackets gives the kind of curve behind each potency; many fits are weak.

A short description of the test: qHTS Assay for Lipid Storage Modulators in Drosophila S3 Cells.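 As to Cell number change: cells counted by Cell Tracker Red CMTPX staining in the red channel.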 The note with it: BODIPY lipid droplet fluorescence, 18-24 h; for cell number change: measured here: cell count max response, cells fed with added oleic acid. The essentials:
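Drosophila S3 cells got compounds at several concentrations plus oleic acid (400 uM solution). Laser-scanning cytometry with 488 nm excitation read lipid droplets at 500-530 nm and cells at 575-640 nm. Percent activity was relative to 20 uM Triacsin C.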

Where [1] appears, read: measured here: cell number channel AC50, cells fed with added oleic acid.
[2] abbreviates: measured here: lipid fluorescence (Fed channel) AC50, cells fed with added oleic acid.

With `O=C(Nc1ccc(N2CCN(C(=O)c3ccccc3)CC2)cc1)c1cc2ccccc2o1`, the cell number change is -19.3%.

As to `Cc1ccc(S(=O)(=O)O/N=C2\CCCc3ccccc32)cc1`, the cell number change was -53.4%. Further, the concentration at half-maximal activity (AC50) under setting [1] was 23.1 µM [falling, partial curve, poor fit].

With `Cc1c2cn[nH]c(=O)c2c(C)n1Cc1ccc(F)cc1`, the cell number change amounted to 47.8%. In addition, under setting [1], the AC50 was 18.4 µM [rising, single point].

Consider `CC1(C)CC(=O)N(c2ccccc2)C1(C)O` (stereo not given), for which the AC50 under setting [2] was 8.2 µM [falling, partial curve].

With `CN1CCN(CC#CC2(O)CCCCC2)CC1`, the cell number change is 5.89%.

Turning to `Cc1ccc(C(=O)NCc2cccc(C(F)(F)F)c2)cc1S(=O)(=O)N1CCCCC1`, the cell number change came out at 24.7%. Under setting [2], the AC50 is 9.2 µM [rising, partial curve].

On to `O=C(NNC(=S)NC1CC2CCC1C2)c1ccc(Cl)cc1` (stereo not given), for which the cell number change was -8.81%. In addition, the AC50 under setting [2] is 0.146 µM [rising, full curve, poor fit].

Turning to `O=C(CSc1cn[nH]n1)Nc1cccc(C(=O)O)c1`, the cell number change was 15.2%.

For the compound `COc1ccc(/C=C(\NC(=O)c2ccc(OC)cc2)C(=O)NC(CCSC)C(=O)O)cc1` (stereo not given), the cell number change is -18.4%. Besides, under setting [1], the concentration at half-maximal activity (AC50) was 2.59 µM [falling, single point]. Under setting [2], the half-maximal activity concentration (AC50) is 6.51 µM [falling, single point].

Consider `C=C(C)C1CC=C(C)/C(=N/NC(=O)COc2ccc(Cl)cc2)C1` (stereo not given), for which the cell number change was 10.3%. Moreover, the AC50 under setting [2] is 0.291 µM [rising, full curve].

`COC(=O)c1c(=O)n(O)c2ccc(OC)cc2[n+]1[O-]`: the cell number change amounted to 10.6%. In addition, the AC50 under setting [2] is 16.4 µM [falling, partial curve, poor fit].

As for `CC1CCCCN1C(=O)c1cccc(NC(=O)c2ccccc2)c1` (stereo not given), the cell number change was found to be 8.4%. For the same compound, the AC50 under setting [1] was 1.03 µM [falling, full curve]. In addition, the AC50 under setting [2] was 1.16 µM [falling, full curve].

Take `CCOC(=O)c1c(C)[nH]c(C)c1C(=O)COC(=O)c1ccc(Cl)c(S(N)(=O)=O)c1`: the cell number change stood at 36.2%. Further, under setting [1], the half-maximal activity concentration (AC50) was 0.164 µM [rising, full curve]. In addition, the AC50 under setting [2] is 1.64 µM [rising, partial curve, poor fit].

With `N#CC1(Nc2ccccc2)C(=O)Nc2ccccc21` (stereo not given), the cell number change was determined as 28.1%.

Consider `CCC1(CC)NC(=O)N(CC(=O)NC(=O)NCc2ccccc2)C1=O`, for which the cell number change is -3.17%. In addition, the AC50 under setting [2] is 1.84 µM [falling, partial curve].

As to `CCn1cc(C(=O)NCC(OC)OC)c(=O)c2cc(S(=O)(=O)N(C)C3CCCCC3)ccc21`, the cell number change was -13%. Also, the AC50 under setting [2] is 29.1 µM [rising, single point].

As to `Cc1onc(-c2c(Cl)cccc2Cl)c1C(=O)NCCN1CCOCC1`, the cell number change was -8.2%. In addition, under setting [2], the half-maximal activity concentration (AC50) is 29.1 µM [falling, single point].

With `CC(C)C(=O)Nc1cccc(C(=O)Nc2nncs2)c1`, the cell number change is 17.1%. In addition, the concentration at half-maximal activity (AC50) under setting [2] was 1.16 µM [falling, full curve, poor fit].

Take `Cc1nc(N)sc1Cc1ccc2c(c1)OCO2`: the cell number change was -15.3%.

As for `O=C(Nc1cccc(Cl)c1N1CCOCC1)c1ccc(Br)o1`, the cell number change was -6.27%. Besides, under setting [2], the AC50 is 9.2 µM [falling, partial curve].

Take `O=C(c1ccc(C#Cc2ccccc2)o1)N1CCN(c2ccccn2)CC1`: the cell number change was -8.79%.

`CCOC1=C/C(=C/c2c(N)n3nc(-c4ccccc4)sc3nc2=O)C=CC1=O`: the cell number change is -20.1%.

`COc1ccc2cc1Oc1ccc(cc1)C[C@H]1c3cc(c(OC)cc3CCN1C)Oc1c(OC)c(OC)cc3c1[C@@H](C2)N(C)CC3`: the cell number change was 19.2%. For the same compound, the AC50 under setting [2] was 16.4 µM [rising, partial curve, poor fit].

For the compound `CCOc1ccc(NC(=O)c2cc(=O)[nH]c3ccccc23)cc1`, the cell number change is -20.1%.

As to `CCOc1ccc(NC(=O)CC(NC(C)=O)c2ccccc2)cc1S(=O)(=O)N1CCCC1` (stereo not given), the cell number change was -7.89%. The AC50 under setting [1] is 6.51 µM [falling, single point].

Regarding `O=C(Nc1ccc(F)cc1)c1ccc(=O)[nH]n1`, the cell number change is -32.8%. Further, under setting [1], the AC50 is 0.116 µM [falling, full curve, poor fit].

For `Cc1ccc(CNS(=O)(=O)c2ccc(Br)s2)cc1`, the cell number change was -8.11%. Further, the AC50 under setting [2] is 2.31 µM [rising, partial curve, poor fit].

Regarding `COc1cc(CC(=O)OCC(=O)N2CCCCC2C)cc(OC)c1OC` (stereo not given), the cell number change worked out at 10.8%. For the same compound, the AC50 under setting [2] was 6.51 µM [rising, single point].

`COc1ccccc1N1CCN(CC(=O)Nc2ccc(S(=O)(=O)N3CCCCCC3)cc2)CC1`: the cell number change was -11.7%. Moreover, under setting [2], the AC50 was 29.1 µM [falling, single point].

In the case of `Nc1ccc(S(=O)(=O)NC(Cc2ccccc2)C(=O)O)cc1` (stereo not given), the cell number change was -3.87%. Moreover, the AC50 under setting [2] is 6.51 µM [rising, single point].

As for `CCN(C(=O)CSc1nnc(-c2ccc(Cl)cc2)n1C)C1CCS(=O)(=O)C1` (stereo not given), the cell number change was -22.5%. The AC50 under setting [1] is 0.461 µM [falling, single point]. Moreover, the concentration at half-maximal activity (AC50) under setting [2] was 0.92 µM [falling, full curve, poor fit].

On to `CCn1cc(C(=O)NCCc2ccc(Cl)cc2)c(=O)c2cc(S(=O)(=O)N(C)C)ccc21`, for which the cell number change is -15.3%. Besides, the AC50 under setting [2] is 0.116 µM [falling, full curve, poor fit].

In the case of `CC1=Nn2c(nnc2-c2n[nH]c3c2CCC3)SC1`, the cell number change is -3.97%. The AC50 under setting [1] was 2.06 µM [rising, partial curve]. The AC50 under setting [2] was 3.26 µM [rising, partial curve].

For the compound `Cc1cccc(C(=O)N[C@H](C(=O)NCCc2ccc(S(N)(=O)=O)cc2)C(C)C)c1`, the cell number change came to 15.4%.

In the case of `CC(=O)N1CCc2c(sc3c2c(=O)n(-c2ccccc2)c(=O)n3Cc2ccccc2Cl)C1`, the cell number change is 18.1%. Moreover, the concentration at half-maximal activity (AC50) under setting [2] was 6.51 µM [rising, single point].

With `O=C(Cc1cccs1)NNC(=O)c1ccccc1Cl`, the cell number change is -27.6%. Further, the half-maximal activity concentration (AC50) under setting [2] is 4.11 µM [rising, single point].

On to `Cn1c(CNC(=O)c2ccc3c(c2)OCO3)nnc1SCC(=O)Nc1ccc(F)cc1F`, for which the cell number change is -3.97%.

`COc1ccc(NS(=O)(=O)c2cc(-c3nnnn3C)ccc2OC)cc1`: the concentration at half-maximal activity (AC50) under setting [1] is 0.0206 µM [falling, full curve, poor fit].

Turning to `O=C(COc1ccc(S(=O)(=O)N2CCCC2)cc1)NCc1cccnc1`, the cell number change is -11.8%.

For the compound `CC(/C=N/NC(=O)CSc1nc2ccccc2n1C)=C\c1ccco1`, the AC50 under setting [1] is 1.03 µM [rising, partial curve].

On to `CCN(c1cccc(C)c1)S(=O)(=O)c1ccc2c(c1)CCCN2C(C)=O`, for which the cell number change came to 6.85%.

For `COCCCNC(=O)c1ccc(Cn2c(=O)c3ccccc3n(Cc3ccc(C)cc3)c2=O)cc1`, the concentration at half-maximal activity (AC50) under setting [2] was 0.58 µM [rising, single point].

Take `c1ccc2oc(SCc3cn4ccsc4n3)nc2c1`: the cell number change was -6.83%.

Regarding `CCN1C(=O)[C@@H]2[C@@H](c3ccc(SC4CCCCC4)cc3)N3CCCC[C@@]3(C(=O)OC)[C@@H]2C1=O`, the cell number change is -0.528%. Moreover, the half-maximal activity concentration (AC50) under setting [1] was 4.11 µM [falling, single point].

On to `CCNC(=S)N1CCN(CCNC2=CC(=O)CC(C)(C)C2)CC1`, for which the cell number change is -48.3%. For the same compound, the AC50 under setting [1] is 5.8 µM [falling, full curve]. In addition, under setting [2], the AC50 is 23.1 µM [falling, single point].

In the case of `COc1cccc(NC(=S)N2CCC(c3ccc(C)cc3)C2)c1` (stereo not given), the cell number change is 23%. Further, the concentration at half-maximal activity (AC50) under setting [2] was 0.731 µM [falling, full curve].

`Cc1ccc(C)c(N2CCN(C(=S)NC3CCCCC3)CC2)c1`: the AC50 under setting [1] was 0.082 µM [rising, full curve, poor fit].

For `Cc1ccc(NC(=O)CN2CCN(S(=O)(=O)c3ccc(F)cc3)CC2)cc1C`, the cell number change turned out to be 4.38%. For the same compound, under setting [2], the concentration at half-maximal activity (AC50) is 0.92 µM [rising, full curve, poor fit].

As to `COc1ccccc1N(CC(=O)NC1CCCC1)S(=O)(=O)c1cccc(C(F)(F)F)c1`, the cell number change was -17.5%. The AC50 under setting [2] is 6.51 µM [rising, single point].

With `Cc1ccc(-c2csc3nnc(SCC(=O)NCc4ccc5c(c4)OCO5)n23)cc1`, the AC50 is, setting by setting: under setting [1], 2.91 µM [rising, partial curve]; under setting [2], 1.84 µM [rising, full curve].

On to `CCOc1ccc(Oc2ccccc2NC(=O)C2=COCCO2)cc1`, for which the AC50 under setting [1] is 6.51 µM [rising, single point].

Regarding `Cc1ccc(S(=O)(=O)CCC(=O)NCCN2C(=O)S/C(=C\c3ccccc3)C2=O)cc1`, the cell number change was -15.3%. The AC50 under setting [2] is 20.6 µM [falling, single point].

For `COC(=O)Cc1c(O)ccn(Cc2ccc(F)cc2)c1=O`, the cell number change is -7.68%. Also, under setting [2], the AC50 was 9.2 µM [rising, partial curve].

In the case of `Cc1ccc(C(=O)OCC(=O)NC(=O)c2cccn2C)cc1`, the cell number change is -28.6%. Further, the AC50 under setting [1] was 3.66 µM [falling, full curve, poor fit]. Moreover, under setting [2], the concentration at half-maximal activity (AC50) is 3.66 µM [falling, full curve].

On to `O=C(Cc1cccs1)NCCc1ccc(Cl)cc1`, for which the cell number change is -17.3%. Moreover, the AC50 under setting [2] was 1.46 µM [falling, partial curve].

Consider `CCC(=O)Nc1c2c(nn1-c1ccc(OC)cc1)CSC2`, for which the cell number change is -12.2%. Besides, the AC50 under setting [2] is 7.31 µM [rising, partial curve, poor fit].

Turning to `Cc1ccc(N(CC2CO2)S(=O)(=O)c2ccccc2[N+](=O)[O-])cc1` (stereo not given), the cell number change is -25.6%.

As for `COc1cc(OC)cc(C(=O)N[C@H](C(=O)Nc2nc(-c3ccc(F)c(F)c3)cs2)C(C)C)c1`, the cell number change was -43.3%. For the same compound, the AC50 under setting [1] is 32.6 µM [falling, single point]. In addition, under setting [2], the half-maximal activity concentration (AC50) was 16.4 µM [falling, single point].

Turning to `N#CCSc1nnc(-c2sc3ccccc3c2Cl)o1`, the cell number change was found to be 13.2%. Further, under setting [2], the AC50 is 2.06 µM [rising, full curve].

Regarding `CC(=O)Nc1ccc2nsnc2c1`, the cell number change is -17.8%.

Take `Clc1ccc(OCCNCCc2ccccc2)cc1`: the cell number change was determined as 29.9%. The concentration at half-maximal activity (AC50) under setting [2] is 29.1 µM [falling, single point].

Turning to `O=c1ccnc(S/C=C/c2ccccc2)[nH]1`, the AC50 under setting [2] was 0.731 µM [falling, full curve].

In the case of `Cc1nn(C)c(C)c1CS(=O)(=O)c1ccccc1`, the cell number change was 4.87%. Further, under setting [1], the AC50 is 0.0651 µM [rising, full curve, poor fit]. Besides, under setting [2], the AC50 was 2.91 µM [rising, single point].

On to `Cc1cc(NC(=O)c2ccccc2NS(=O)(=O)c2c(C)c(C)cc(C)c2C)no1`, for which the cell number change is -30.4%. The AC50 under setting [1] is 29.1 µM [falling, single point].
